Data: paper PMC4834642 (Nature Communications, 2016)

Assay: general procedure: Fmoc solid-phase peptide synthesis; Tentagel rink amide resin; HCTU and COMU
Conditions: whole synthesis; for final HPLC purity: 210 nm; for isolated yield: Fmoc quantification after 1st amino acid

Row | Substance | isolated yield (run 1) | isolated yield (run 2) | final HPLC purity (run 1) | final HPLC purity (run 2) | other results
1 | D D E K E Q F L Y H L L S F N A V |  |  |  |  | final HPLC purity (b133 entry 1a): 84%; final HPLC purity (b133 entry 1b): >99%; isolated yield (b133 entry 1a): 43%; isolated yield (b133 entry 1b): 70%
2 | D D E 2 E Q F 1 Y H L L S F N A V | 23% | 21% |  |  | final HPLC purity: 97%
3 | D D E 2 E Q F 2 Y H L L S F N A V | 16% | 15% | 98% | 96% | 
4 | D D E 1 E Q F 2 Y H L L S F N A V | 12% | 13% | 95% | 88% | 
5 | D D E 6 E Q F 6 Y H L L S F N A V |  |  |  |  | final HPLC purity (b133 entry 2a): >99%; final HPLC purity (b133 entry 2b): 98%; isolated yield (b133 entry 2a): 60%; isolated yield (b133 entry 2b): 65%
